# Measured values from PubChem BioAssay AID1671190 (National Center for Advancing Translational Sciences (NCATS), 2021).
# Amino acid sequences for entries named in this document (tags omitted). A change or cut given only in a name is not applied to a line headed by its entry.
# UniProt P18054: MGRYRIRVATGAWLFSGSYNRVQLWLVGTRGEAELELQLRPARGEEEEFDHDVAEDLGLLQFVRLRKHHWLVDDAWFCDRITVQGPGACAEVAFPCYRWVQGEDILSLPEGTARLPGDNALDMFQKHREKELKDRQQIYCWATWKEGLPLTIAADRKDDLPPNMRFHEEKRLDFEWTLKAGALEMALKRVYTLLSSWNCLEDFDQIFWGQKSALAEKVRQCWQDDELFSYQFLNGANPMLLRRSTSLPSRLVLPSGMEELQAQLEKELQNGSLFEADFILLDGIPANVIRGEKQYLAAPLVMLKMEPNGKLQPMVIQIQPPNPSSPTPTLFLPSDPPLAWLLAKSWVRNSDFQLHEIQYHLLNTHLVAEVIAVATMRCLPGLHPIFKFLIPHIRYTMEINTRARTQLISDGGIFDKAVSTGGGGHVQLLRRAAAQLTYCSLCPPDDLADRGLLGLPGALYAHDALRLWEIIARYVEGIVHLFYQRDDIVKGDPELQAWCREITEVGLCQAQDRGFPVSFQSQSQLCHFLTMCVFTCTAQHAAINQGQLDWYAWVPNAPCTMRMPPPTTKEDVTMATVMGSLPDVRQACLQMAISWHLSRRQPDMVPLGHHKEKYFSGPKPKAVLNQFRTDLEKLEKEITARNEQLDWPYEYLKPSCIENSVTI
# Hit rate of the full screen: of about 580,000 compounds, about 6,100 (1.1%) were called active. Inconclusive means that the source gave no clear call. Such entries were picked first, then a sample of the others. The call rests on the fitted dose curve; in most records, active means well fitted inhibition curve with a large enough effect; inconclusive means small, poorly fitted or top-dose-only effect, or another doubt; inactive means no such curve, though single readings can be large or run the other way. A potency beside an inconclusive call is a rough fit, not a confirmed value.
# Target: Polyunsaturated fatty acid lipoxygenase ALOX12 (Homo sapiens) (UniProt P18054)
# Test: Primary qHTS assay for inhibitors of human arachidonate 12S-lipoxygenase (ALOX12): Round 2
# Conditions: purified 12hLO, xylenol orange hydroperoxide absorbance; series mostly up to 108 µM
# Method in brief: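 Purified human 12hLO (150 nM final) in 25 mM Hepes, 0.01% Triton X-100, pH 7.0 was preincubated 15 min at room temperature with compound. Then 40 uM arachidonic acid was added, 30 min. Hydroperoxide was read by Fe-XO absorbance ratio 573/405 nm.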
# Potency means the concentration at half of the fitted maximal effect.
row,SMILES,Potency
1,Fc1ccc(Nc2ccnc(-c3ccccc3C(F)(F)F)n2)cc1,"inconclusive: 20 µM [inhibitor, full curve, poor fit]"
2,Cn1c(=O)c2c(ncn2CC(=O)OCc2ccc(C(C)(C)C)cc2)n(C)c1=O,inactive
3,c1ccc2c(N3CCOCC3)nc(N3CCOCC3)nc2c1,"inconclusive: 28.2 µM [inhibitor, partial curve, poor fit]"
4,CC(C)C(=O)N1Cc2ccccc2OC2(CCN(C(C)C)CC2)C1,inactive
5,Cc1c(C(=O)NCCC2=CCCCC2)sc2ncnc(N3CCCCC3C)c12 (centres undefined),"inconclusive: 70.8 µM [inhibitor, partial curve, poor fit]"
6,CCN(CC(=O)Nc1ccc2c(c1)OCCO2)C(=O)c1ccc(C(F)(F)F)cc1,"inconclusive: 11.2 µM [inhibitor, partial curve, poor fit]"
7,CCC(=O)N(CCC(c1ccccc1)c1ccco1)Cc1cccs1 (centres undefined),"inconclusive: 39.8 µM [inhibitor, partial curve, poor fit]"
8,Cc1ccc(-c2cc(C(=O)OCC(=O)NC(=O)C3CCCCC3)c3ccccc3n2)o1,"inconclusive: 3.16 µM [inhibitor, full curve, poor fit]"
9,CCC(CC)NC(=O)C1Cn2cccc2C(=O)N1Cc1ccccc1 (centres undefined),inactive
10,O=C(O)c1cccc(-c2ccc(/C=C3/SC(=Nc4ccccc4)N(Cc4cccnc4)C3=O)o2)c1,"inconclusive: 28.2 µM [inhibitor, single point]"
11,CC(C(=O)N1CCOCC1)c1ccc([N+](=O)[O-])cc1 (centres undefined),inactive
12,COc1cccc(NC(=S)NNC(=O)Cn2nc(C(F)(F)F)cc2C)c1,"inconclusive: 39.8 µM [inhibitor, partial curve, poor fit]"
13,CC(NC(=S)NNS(=O)(=O)c1cccc([N+](=O)[O-])c1)c1ccccc1 (centres undefined),"inconclusive: 31.6 µM [inhibitor, single point]"
14,COc1ccc(OC)c(/C=C2\N=C(SC)SC2=O)c1,"inconclusive: 0.316 µM [inhibitor, full curve, poor fit]"
15,O=C(c1ccc[nH]1)N1CCC(n2cc(-c3nc(C4CC4)no3)nn2)C1 (centres undefined),"inconclusive: 28.2 µM [inhibitor, full curve, poor fit]"
16,O=C1Nc2cccnc2N(C(=O)CCl)c2ccccc21,"inconclusive: 39.8 µM [inhibitor, single point]"
17,CC(C)CC(N)c1csc(NC(=O)C(c2ccccc2)c2ccccc2)n1 (centres undefined),"inconclusive: 79.4 µM [inhibitor, single point]"
18,COc1cccc(/C(O)=C2\C(=O)C(=O)N(c3ccccn3)C2c2cccc(OC)c2OC)c1 (centres undefined),"inconclusive: 35.5 µM [inhibitor, partial curve, poor fit]"
19,CC1CN(C(=O)COC(=O)c2ccc(N)c([N+](=O)[O-])c2)CC(C)O1 (centres undefined),inactive
20,Cc1cccc(NC(=O)N(C)C(c2ccc(Cl)cc2)c2nccn2C)c1 (centres undefined),inactive
21,O=C(C1CCc2nnc(-c3ccc(Cl)cc3Cl)n21)N1CCOCC1 (centres undefined),"inconclusive: 79.4 µM [inhibitor, partial curve, poor fit]"
22,Cc1ccc(F)cc1NC(=O)c1ccn(Cn2nnc(-c3ccccc3)n2)n1,inactive

row,SMILES,Potency
1,Cc1cc(C)c(NC(=O)CN(C)C(=O)c2cc3cc(C)ccc3nc2C)c(C)c1,"inconclusive: 44.7 µM [inhibitor, partial curve]"
2,CSc1ccc(CN2CCCCCC2c2sccc2C)cc1 (centres undefined),"inconclusive: 22.4 µM [inhibitor, partial curve, poor fit]"
3,Cc1ccc(C(CC(=O)Nc2ccc(F)cc2)c2c[nH]c3ccccc23)cc1 (centres undefined),"inconclusive: 15.8 µM [inhibitor, full curve, poor fit]"
4,COc1cc(OC)c(OC)cc1CNC(=O)c1ccc(COc2ccccc2)cc1,inactive
5,CCOC(=O)c1cccc(NC(=O)C(CC)n2cnc3ccccc3c2=O)c1 (centres undefined),inactive
6,CN(C(=O)COC(=O)c1ccccc1Nc1ccccc1)c1c(N)n(Cc2ccccc2)c(=O)[nH]c1=O,"inconclusive: 44.7 µM [inhibitor, partial curve, poor fit]"
7,Nc1ccc(Sc2ccc(Cl)cc2)cc1,"inconclusive: 44.7 µM [inhibitor, partial curve, poor fit]"
8,O=C(NC(=S)Nc1cccc(C(F)(F)F)c1)c1ccc2nonc2c1,active: 35.5 µM
9,Cc1cc(C)c2oc(=O)cc(CN3CCN(CCc4ccccn4)CC3)c2c1,"inconclusive: 35.5 µM [inhibitor, partial curve, poor fit]"
10,O=C(NCCc1ccncc1)C1CN(C(=O)c2c(F)cccc2F)CC12CCOCC2 (centres undefined),"inconclusive: 31.6 µM [inhibitor, full curve, poor fit]"
11,Cc1ccc(C2=N/C(=C\c3cccs3)C(=O)N2Nc2ccccc2)cc1,"inconclusive: 50.1 µM [inhibitor, partial curve, poor fit]"
12,O=C(CN1CCCCCC1)N1c2ccccc2Sc2ccc(C(F)(F)F)cc21,"inconclusive: 35.5 µM [inhibitor, partial curve]"
13,CCCn1c(Cn2ccnc2C)nc2cc(NC(=O)c3ccccc3OC)ccc21,inactive
14,COc1ccc(-c2noc(CC3CCN(C(=O)c4cc(Cl)ccc4OC)CC3)n2)cc1,inactive
15,Cc1ccc(C)c(N=Cc2cc3c(cc2[N+](=O)[O-])OCO3)c1,"inconclusive: 50.1 µM [inhibitor, partial curve, poor fit]"
16,COc1ccc(C(=O)Cn2cnc3ccccc3c2=O)cc1,"inconclusive: 50.1 µM [inhibitor, partial curve, poor fit]"
17,Cn1cc(-c2cnc3[nH]cc(CC(=O)Nc4ccccc4Cl)c3c2)cn1,inactive
18,CC1=NN(C(=O)c2ccoc2C)C(O)(C(F)(F)F)C1 (centres undefined),inactive
19,COC(=O)[C@@]12C[C@@H](CC(=O)N3CCN(C(=O)c4ccco4)CC3)C(=O)N(Cc3ccccc3)C1=CCC(C)(C)C2,inactive
20,Cc1c(CCC(=O)O)c(=O)oc2c(C)c3occ(-c4ccc(Cl)cc4)c3cc12,"inconclusive: 39.8 µM [inhibitor, partial curve, poor fit]"
21,O=C(N/N=C/c1ccccc1F)c1csc2ccccc12,inactive
22,Cc1cc(C)c(NC(=O)Cn2c(=O)n(CCCCC(=O)NCc3ccccc3Cl)c(=O)c3ccccc32)c(C)c1,"inconclusive: 89.1 µM [inhibitor, partial curve, poor fit]"

row,SMILES,Potency
1,CC(C)N1CCC(CCNC(=O)CCC[C@H]2NC[C@@H]3C[C@H]2CN(Cc2ccccc2)C3)CC1,"inconclusive: 8.91 µM [inhibitor, partial curve]"
2,CCOc1cc(N2CCOCC2)c(OCC)cc1NC(=O)CSc1ncccn1,inactive
3,COc1ccc(C=C2SC(=S)N(CCCN3CCOCC3)C2=O)c(OC)c1,"inconclusive: 56.2 µM [inhibitor, partial curve, poor fit]"
4,COCCCn1c(=N)c(C(N)=S)cc2c(=O)n3cccc(C)c3nc21,"inconclusive: 56.2 µM [inhibitor, partial curve, poor fit]"
5,Cc1ccc(-c2cc(C(=O)Nc3ccc4c(c3)OCCO4)c3ccccc3n2)cc1,"inconclusive: 35.5 µM [inhibitor, partial curve]"
6,CCOCC(=O)N1CCC2(CCC(=O)N(CC3CC3)CC2)CC1,inactive
7,O=C(COC(=O)c1cccc(I)c1)c1ccc([N+](=O)[O-])cc1,"inconclusive: 35.5 µM [inhibitor, partial curve, poor fit]"
8,CC(C)(C)CC(C)(C)NCc1ccc(C(=O)O)cc1,"inconclusive: 17.8 µM [inhibitor, partial curve, poor fit]"
9,Cc1cc(C)cc(NC(=S)N[C@H]2CO[C@H]3[C@@H]2OC[C@H]3OC(=O)NC2CCCCC2)c1,"inconclusive: 70.8 µM [inhibitor, partial curve]"
10,COc1ccc(/C=C/C(=O)c2ccc(C)s2)cc1,inactive
11,O=C(NCCc1cccnc1)c1ccccc1Cl,"inconclusive: 44.7 µM [inhibitor, single point]"
12,COc1ccc2c(c1)OCCN(c1ccc(NC(=O)c3ccc(F)cc3)cc1C(=O)O)C2,"inconclusive: 4.47 µM [inhibitor, full curve]"
13,Cc1ccc(-c2nc(C)c(C(=O)O)s2)cc1,"inconclusive: 50.1 µM [inhibitor, partial curve, poor fit]"
14,FC(F)(F)c1ccccc1CN1CCCc2nc(-c3ccc(Br)cc3)ccc21,"inconclusive: 50.1 µM [inhibitor, partial curve, poor fit]"
15,O=C(Nc1cc(C(F)(F)F)ccc1Cl)C1=C(c2ccccc2)S(=O)(=O)CCO1,"inconclusive: 35.5 µM [inhibitor, single point]"
16,O=C(c1ccoc1)N1CCCC(N2CCN(c3cccc(C(F)(F)F)c3)CC2)C1 (centres undefined),"inconclusive: 44.7 µM [inhibitor, single point]"
17,N[C@H]1CCN2C(=O)c3cc(-c4ccc5c(c4)OCO5)ccc3NC(=O)[C@H]12,"inconclusive: 17.8 µM [inhibitor, full curve, poor fit]"
18,CC1CCCC(NC(=O)C2N(CCCN3CCCC3)C(=O)C3C(C(=O)Nc4ccc(Cl)cc4)C4C=CC32O4)C1C (centres undefined),inactive
19,CCCCC(=O)NC(=S)Nc1cccc(NC(=O)c2ccco2)c1,"inconclusive: 39.8 µM [inhibitor, partial curve, poor fit]"
20,CCN(CC)CCCN=C1N[C@@H](c2cccc(C(F)(F)F)c2)C(C(=O)OC)=C(C)N1CC,"inconclusive: 44.7 µM [inhibitor, partial curve, poor fit]"

# Laid out differently: twelve of the compounds above
row	SMILES	Potency
5	Cc1ccc(-c2cc(C(=O)Nc3ccc4c(c3)OCCO4)c3ccccc3n2)cc1	inconclusive: 35.5 µM [inhibitor, partial curve]
6	CCOCC(=O)N1CCC2(CCC(=O)N(CC3CC3)CC2)CC1	inactive
7	O=C(COC(=O)c1cccc(I)c1)c1ccc([N+](=O)[O-])cc1	inconclusive: 35.5 µM [inhibitor, partial curve, poor fit]
8	CC(C)(C)CC(C)(C)NCc1ccc(C(=O)O)cc1	inconclusive: 17.8 µM [inhibitor, partial curve, poor fit]
9	Cc1cc(C)cc(NC(=S)N[C@H]2CO[C@H]3[C@@H]2OC[C@H]3OC(=O)NC2CCCCC2)c1	inconclusive: 70.8 µM [inhibitor, partial curve]
10	COc1ccc(/C=C/C(=O)c2ccc(C)s2)cc1	inactive
11	O=C(NCCc1cccnc1)c1ccccc1Cl	inconclusive: 44.7 µM [inhibitor, single point]
12	COc1ccc2c(c1)OCCN(c1ccc(NC(=O)c3ccc(F)cc3)cc1C(=O)O)C2	inconclusive: 4.47 µM [inhibitor, full curve]
13	Cc1ccc(-c2nc(C)c(C(=O)O)s2)cc1	inconclusive: 50.1 µM [inhibitor, partial curve, poor fit]
14	FC(F)(F)c1ccccc1CN1CCCc2nc(-c3ccc(Br)cc3)ccc21	inconclusive: 50.1 µM [inhibitor, partial curve, poor fit]
15	O=C(Nc1cc(C(F)(F)F)ccc1Cl)C1=C(c2ccccc2)S(=O)(=O)CCO1	inconclusive: 35.5 µM [inhibitor, single point]
16	O=C(c1ccoc1)N1CCCC(N2CCN(c3cccc(C(F)(F)F)c3)CC2)C1 (centres undefined)	inconclusive: 44.7 µM [inhibitor, single point]
